Laboratory results published in PubChem BioAssay AID2685 (National Center for Advancing Translational Sciences (NCATS), 2010).
Screen size: about 320,000 compounds; about 2,100 (0.66%) were called active. This list was built around the results that the source calls inconclusive (neither active nor inactive); the mix of calls is not that of the screen. Calls follow the shape of the dose curve; as a rule, active = well fitted inhibition curve with a large enough effect in the signal ratio, with a control signal flat (not every such curve was filed as active); inconclusive = small, poorly fitted or top-dose-only effect, or effect the other way, or a change in a side signal; inactive = flat fitted curve, though single readings scatter; the % refers to the signal ratio. Potencies of inconclusive entries are doubtful fits and often do not repeat.

Assay: qHTS Assay for Lipid Storage Modulators in Drosophila S3 Cells
Details: BODIPY lipid droplet fluorescence, 18-24 h, cells fed with added oleic acid; lipid storage change, negative = inhibition: at 46.1 µM (top of the series) unless noted
From the text: NIH Molecular Libraries Probe Production Centers Network [MLPCN] NIH Chemical Genomics Center [NCGC] MLPCN Grant: 1 R03 MH085686-01 Assay Submitter (PI): Beller, Mathias; Max-Planck-Institut fur Biophysikalische Chemie NCGC Assay Overview: Storing lipids as a reservoir for energy or the anabolism of elementary metabolites is a common feature of probably all cells and is conserved from bacteria to humans. The universal cellular lipid storage organelle is the so-called lipid storage droplet (LD). Although ubiquitous, LDs share a simple structure composed of a hydrophobic core that harbors the storage lipids, which is shielded by a droplet-specific phospholipid monolayer to which proteins are attached. The current model of LD biogenesis involves an incorporation of the lipid core into the membrane leaflets of the endoplasmic reticulum (ER) followed by a subsequent budding-like maturation of a LD, which ultimately pinches off. Once released, LD volume can increase by localized lipogenesis or fusion of existing droplet. Storage lipids are re-mobilized enzymatically by lipase activity. Lipase regulation in the adipocyte is heavily studied and involves multiple components including catecholamine signaling, the LD-associated proteins Perilipin and comparative gene identification (CGI-58) and at least two lipases named hormone sensitive lipase (HSL) and adipocyte triglyceride lipase (ATGL). LD regulation outside of the adipocyte is poorly understood and only few components are known. However, there is an urgent need to learn more about ectopic fat depots as mislocalized storage of lipids, for example in the liver or muscle, is an eminent health problem associated with insulin resistance or the metabolic syndrome. We developed a laser-scanning cytometer assay to enable 1,536-well screening and combined the results of the small molecules screen with an RNAi database based on lipid storage.
Triacsin C (Sigma-Aldrich T-4540), an inhibitor of long-chain fatty acyl CoA synthetase that blocks synthesis of triglycerides, was used as a positive control for lipid under-storage. A total of 23 nL of compound solution of different concentrations were transferred to the assay plates using a Kalypsys pin tool equipped with a 1,536-pin array containing 10-nL slotted pins (FP1S10, 0.457-mm diameter, 50.8 mm long; V&P Scientific). One microliter of oleic acid (400 uM) was added, and the plate was lidded with stainless steel rubber gasket lined lids containing pinholes. […] Fluorescence was detected by excitation of the fluorophores with a 488-nm laser on an Acumen Explorer (TTP Lab Tech). The total intensity in channel 2 (500-530 nm) reflected lipid droplet accumulation. Cells were detected using channel 3 (575-640 nm) with 5-um width and 100-um depth filters. The ratio of the number of objects in PMT channel 2 over the number of objects in PMT channel 3 was also calculated. Percent activity was computed relative to an internal control (100% inhibited lipid droplet deposition due to the presence of 20 uM Triacsin C), which was added to 32 wells/plate.
% is scaled to controls: 0 for no effect and ±100 for the full control effect; potency is read from the fitted curve at half-maximal effect.

| Compound | lipid storage change, negative = inhibition | Potency |
| --- | --- | --- |
| Oc1ccc2ccccc2c1CN1CCN(c2ccccc2)CC1 | inconclusive: 131% | – |
| COCCOC(=O)c1c(NC(=O)CN2c3ccccc3CC2C)sc(C(N)=O)c1C (stereo unspecified) | – | inconclusive: 18.4 µM [rising, partial curve] |
| O/N=C1\CCC\C1=C/c1ccco1 | inactive: -0.642% | – |
| CCOc1ccc(NC(=O)CCC(=O)n2nc(C)cc2C)cc1 | inactive: -4.91% | – |
| CN(C(=O)COC(=O)COc1ccccc1Cc1ccccc1)c1ccccc1 | inconclusive | – |
| O=C(c1ccc(NS(=O)(=O)c2cccc([N+](=O)[O-])c2)cc1)N1CCCCCC1 | inactive: 18.1% | – |
| O=[N+]([O-])c1cccnc1N1CCC(c2cc(-c3ccc(Cl)cc3Cl)n[nH]2)CC1 | inconclusive: 139% | – |
| COc1cc(/C=N/NC2=NC(C)(C)Cc3ccccc32)cc(OC)c1OC | inconclusive: -21.6% | – |
| COc1cc(OC)cc(C(=O)NC2CC(C)(C)NC(C)(C)C2)c1 | inconclusive: 61.7% | – |
| COc1ccc(C(=O)c2ccc(N(C)C)cc2)c(OC)c1 | inconclusive: 0.683% | – |
| CC(C)C(=O)NC(NC(=O)C(C)C)c1ccc([N+](=O)[O-])cc1 | inconclusive: 2.36% | – |
| COc1ccc(CN2CCCC(C(=O)N3CCCCC3)C2)cc1 (stereo unspecified) | – | inconclusive: 29.1 µM [rising, single point] |
| Cc1cc2c(cc1C)[n+](C)cn2CC(O)COCc1ccccc1 (stereo unspecified) | inconclusive: 3.54% | – |
| CCOC(=O)Cc1ncccc1C(=O)Nc1ccc(OC)cc1 | inconclusive: 15.1% | – |
| COc1ccc(NC(=O)CN(C)C(=O)c2c(-c3ccccc3Cl)noc2C)cc1 | inconclusive | – |
| Cc1nn(C)cc1/C=C(/C#N)C(N)=O | inconclusive: 32.5% | – |
| CC(C)C(=O)Nc1ccc(C(=O)Nc2ccc(S(=O)(=O)N3CCOCC3)cc2)cc1 | inconclusive: -56% | – |
| CC12CCC(=O)N1C(C(=O)N1CCN(S(=O)(=O)c3ccccc3F)CC1)CS2 (stereo unspecified) | inconclusive: 4.77% | – |
| Cc1ccc(-n2c3nc(=O)[nH]c(=O)c-3cc3cc([N+](=O)[O-])ccc32)cc1 | inconclusive: -23.5% | – |
| Cn1c(=O)c(-c2cc(=O)[nH][nH]2)c(O)c2ccccc21 | inconclusive: 22.6% [at 9.22 µM] | – |
| COc1ccc(CC(=O)N(Cc2ccccc2)c2cccc(C)c2)cc1OC | inconclusive: 21.3% | – |
| Cn1c(SCC(=O)N2CCOCC2)nnc1-c1ccncc1 | – | inconclusive: 1.3 µM [falling, full curve] |
| CC(=O)N1c2ccccc2C(CBr)=CC1(C)C | inconclusive: 6.8% | – |
| CCOc1ccc2ccccc2c1CNc1nnnn1CC | inconclusive: -46.9% [at 0.00295 µM] | – |
| CNC(=S)N/N=C/c1cccc(OCc2ccccc2F)c1 | – | inconclusive: 6.51 µM [activator, partial curve] |
| Cc1c(NC(=S)NC(=O)c2cc3ccccc3o2)c(=O)n(-c2ccccc2)n1C | – | inconclusive: 2.06 µM [activator, partial curve] |

| Compound | lipid storage change, negative = inhibition | Potency |
| --- | --- | --- |
| COc1cc(/C=N/n2nnnc2N)ccc1OC(C)=O | inconclusive: -21% | – |
| CCN(CC)Cc1cc(CCNC(=O)c2ccc(Cl)cc2)ccc1O | inconclusive: -3.27% | – |
| CCn1c(COc2ccccc2)nnc1SCC(=O)Nc1cc(OC)ccc1OC | – | inconclusive: 29.1 µM [falling, single point] |
| O=[N+]([O-])c1ccc(-c2ccc(/C=N/Nc3nc(NCc4ccccc4)nc(N4CCOCC4)n3)o2)cc1 | – | active: 18.4 µM |
| CC1CCCN(C(=O)c2cc3c(=O)n4ccccc4nc3s2)C1 (stereo unspecified) | inconclusive: -193% | – |
| COC(=O)c1ccc(NC(=O)COc2ccc(C3C(C#N)=C(N)Oc4c3ccc3ccccc43)cc2OC)cc1 (stereo unspecified) | inconclusive: -0.187% | – |
| O=C(OC1CCCCC1)c1ccc(NC(=O)C2CCCCC2)cc1 | inconclusive: -50.5% | – |
| S=C(NCCN1CCOCC1)Nc1ccccc1Cl | – | inconclusive: 3.66 µM [activator, single point] |
| c1ccc(CNc2nc(-c3ccccc3)nc3ccccc23)cc1 | inconclusive: 38.5% | – |
| O=C(NC1CCCCCC1)c1ccc(Cl)c(S(=O)(=O)N2CCOCC2)c1 | inconclusive: -19.4% | – |
| Cc1ccc(C(=O)N/N=C\C=C\c2ccccc2[N+](=O)[O-])cn1 | inconclusive: 2.94% | – |
| COc1ccc(Nc2ccc([N+](=O)[O-])cc2[N+](=O)[O-])cc1 | – | inconclusive: 20.6 µM [falling, single point] |
| Cc1cccnc1NC(=O)c1cccc(S(=O)(=O)N2CCCc3ccccc32)c1 | – | inconclusive: 25.9 µM [falling, partial curve, poor fit] |
| CC(C)C(NC(N)=O)C(=O)NC1CCCCC1 (stereo unspecified) | inconclusive: 1.02% | – |
| O=C(Nc1ccc([N+](=O)[O-])cc1)c1nc[nH]c1C(=O)NC1CCCCC1 | – | inconclusive: 1.3 µM [activator, full curve] |
| O=C(NC(Cc1c[nH]c2ccccc12)C(=O)O)/C(=C\c1ccc2c(c1)OCO2)NC(=O)c1ccccc1 (stereo unspecified) | – | inconclusive: 0.0058 µM [falling, full curve, poor fit] |
| N#Cc1c(-c2ccccc2Cl)noc1/C=C/Nc1ccc(C(=O)O)cc1 | inconclusive: 1.99% | – |
| O=C(NC1CCCCC1)C(c1ccccc1)N1CCc2ccccc21 (stereo unspecified) | inconclusive: 22.3% [at 9.22 µM] | – |
| Cc1c(N/N=C(\C#N)C(=O)c2ccccc2)c(=O)n(-c2ccccc2)n1C | inconclusive: -40.2% | – |
| C/C(=N/OC(=O)c1ccc(Br)cc1)c1ccc(C)cc1 | inconclusive: 19.3% | – |
| CCCNS(=O)(=O)c1ccc(CCC(=O)Nc2ccc3c(c2)OCCO3)cc1 | inconclusive: 15.8% | – |
| S=c1[nH]nc(CCc2ccccc2)n1-c1ccccc1 | – | inconclusive: 16.4 µM [falling, partial curve, poor fit] |
| C=CCn1c(SCC(=O)NCC2CCCO2)nnc1-c1ccccc1 (stereo unspecified) | inconclusive: -21.3% | – |
| CCc1noc(C)c1C(=O)N(CCCOC)c1c(N)n(Cc2ccccc2)c(=O)[nH]c1=O | inconclusive: -3.53% | – |
| Cc1oc2c(c1C(=O)N1CCOCC1)C(=O)c1ccccc1C2=O | inconclusive: -26.8% | – |
